PubChem BioAssay AID504808 | Drosophila RNAi Screening Center – 2011

Test: 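Fly genes required to hold E2F transcription in check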 (primary screen)
Cells: Drosophila S2 cells
Knock-down reagent: long dsRNA against Drosophila genes
Measurement: 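Firefly luciferase driven by E2F sites, normalised to Renilla luciferase on the same minimal promoter, measured by plate reader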
Scale: E2F firefly: higher = more E2F reporter activity; Renilla normaliser: higher = more normaliser reporter signal
Hit rule: 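Called active if the normalised E2F reporter went up by over 50%; the cutoff is arbitrary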
In all, the deposit lists about 21,000 reagents; below is an unselected part of those with a known target gene and a result. In the full data, 18 (0.084%) were called active. 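Raw counts without plate normalisation, one of two replicates; the ratio scores behind the calls were not deposited.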 A plus sign joins genes that one reagent is predicted to hit. Not given: the amount of reagent, the time to read-out.

Gene	amplicon	E2F firefly, rep 1	Renilla normaliser, rep 1	outcome
fd19B (forkhead domain 19B)	DRSC20688	1.38e5	6375	inactive
alt (aluminum tubes)	DRSC15315	74525	3219	inactive
Sf3b1 (Splicing factor 3b subunit 1)	DRSC00535	92821	150	inactive
pst (pastrel)	DRSC11003	77944	4377	inactive
Pcd (pterin-4a-carbinolamine dehydratase)	DRSC16785	1.24e5	6057	inactive
FucTD (alpha1,3-fucosyltransferase D)	DRSC08634	1.08e5	4475	inactive
Nepl14 (Neprilysin-like 14)	DRSC15631	1.49e5	5828	inactive
Rpn6 (Regulatory particle non-ATPase 6)	DRSC07541	129	32	inactive
fos28F (retired record)	DRSC03391	1.58e5	5488	inactive
Spn42Db (Serpin 42Db)	DRSC05009	1.39e5	4741	inactive
LS2 (Large Subunit 2)	DRSC04340	86134	4262	inactive
CG2852	DRSC04321	97705	4566	inactive
Ppcs (Phosphopantothenoylcysteine synthetase)	DRSC14127	72281	3834	inactive
Fdx1 (Ferredoxin 1)	DRSC11167	55176	709	inactive
CG17140 + CG17139	DRSC02585	1.67e5	5246	inactive
CG17140 + CG17139	DRSC02586	1.65e5	5155	inactive
p47	DRSC06046	79355	3653	inactive
CG33096	DRSC14440	63261	2852	inactive
CG12560	DRSC02174	1.51e5	5770	inactive
Mcm3 (Minichromosome maintenance 3)	DRSC18679	8650	652	inactive
AttD (Attacin-D)	DRSC16272	49561	3416	inactive
RpS11 (Ribosomal protein S11)	DRSC07289	68737	4651	inactive
CG12204	DRSC19442	1.55e5	6341	inactive
Det (Deterin)	DRSC14489	1.24e5	6902	inactive
rho (rhomboid)	DRSC08734	1.03e5	3707	inactive
CG12493	DRSC08279	94031	3859	inactive
Psa (Puromycin sensitive aminopeptidase)	DRSC08152	73239	3149	inactive
Ntan1 (N-terminal amidohydrolase 1)	DRSC07546	1.58e5	5645	inactive
CG3106	DRSC18279	7810	744	inactive
CG31510	DRSC14182	1.21e5	6579	inactive
CG34347	DRSC14047	85755	2554	inactive
CG34347	DRSC14305	1.03e5	5079	inactive
CG34347	DRSC15104	81876	4040	inactive
CG34347	DRSC15105	36020	2741	inactive
CG4053	DRSC15538	1.29e5	6599	inactive
CG5846	DRSC02904	67490	3272	inactive
TyrRII (Tyramine receptor II)	DRSC15150	1.18e5	7676	inactive
Blos4	DRSC10151	82341	5491	inactive
Tgt (tRNA-guanine transglycosylase)	DRSC00672	84690	3475	inactive
CG42788	DRSC15330	1.17e5	6521	inactive
CG42788	DRSC16139	1.28e5	7131	inactive
CG42788	DRSC16152	1.10e5	5720	inactive
Tehao	DRSC03449	1.04e5	4782	inactive
CG34040	DRSC03902	1.11e5	3301	inactive
CG9581	DRSC20695	1.52e5	5523	inactive
egg (eggless)	DRSC04119	88418	3281	inactive
CG12506	DRSC00347	1.76e5	6199	inactive
CG10748	DRSC09797	1.34e5	7388	inactive
ND-23 (NADH dehydrogenase (ubiquinone) 23 kDa subunit)	DRSC15526	70125	3116	inactive
CG14913	DRSC02397	1.62e5	4953	inactive
CG10132	DRSC02013	77106	3817	inactive
Ir7a (Ionotropic receptor 7a)	DRSC17866	35692	2876	inactive
armi (armitage)	DRSC08193	98996	4011	inactive
CG14135	DRSC10140	61509	1714	inactive
CG9886	DRSC00732	84251	3459	inactive
CR13656 (pseudo)	DRSC13705	86223	2286	inactive
CR13656 (pseudo)	DRSC14656	1.10e5	6065	inactive
croc (crocodile)	DRSC11884	1.29e5	6852	inactive
CG5909	DRSC15914	1.16e5	5891	inactive
CG7509	DRSC08596	71797	3168	inactive
abs (abstrakt)	DRSC12372	77265	3585	inactive
D (Dichaete)	DRSC11132	1.65e5	7395	inactive
scu (scully)	DRSC20369	1.51e5	6168	inactive
CG13843	DRSC14693	96291	5817	inactive
CG13231	DRSC06351	93186	3759	inactive
CG9018	DRSC08618	94110	3717	inactive
CG34163	DRSC01219	1.47e5	7739	inactive
CD98hc (CD98 heavy chain)	DRSC15453	1.51e5	6830	inactive
CG13334	DRSC06369	1.03e5	4253	inactive
CG10209	DRSC05980	2814	213	inactive
CG18596	DRSC15355	71596	3438	inactive
PGRP-LC (Peptidoglycan recognition protein LC)	DRSC08980	1.24e5	4474	inactive
PGRP-LC (Peptidoglycan recognition protein LC)	DRSC10416	1.03e5	5004	inactive
PGRP-LC (Peptidoglycan recognition protein LC)	DRSC10417	1.12e5	5401	inactive
CG2812	DRSC04319	1.18e5	4188	inactive
swa (swallow)	DRSC18842	8049	924	inactive
CG10991 (retired record)	DRSC12156	1.26e5	6547	inactive
Tspo (Translocator protein)	DRSC00533	89649	3805	inactive
CG18428	DRSC15326	1.13e5	6610	inactive
Lrrk (Leucine-rich repeat kinase)	DRSC15816	1.49e5	7744	inactive
CG10514	DRSC14249	1.03e5	5341	inactive
CG9346	DRSC04542	84254	3714	inactive
CG14340	DRSC00370	1.47e5	5759	inactive
CG7551	DRSC10876	1.11e5	6194	inactive

6 of these entries, reformatted:
Gene | amplicon | E2F firefly, rep 1 | Renilla normaliser, rep 1 | outcome
CG34347 | DRSC14305 | 1.03e5 | 5079 | inactive
CG34347 | DRSC15104 | 81876 | 4040 | inactive
CG34347 | DRSC15105 | 36020 | 2741 | inactive
CG4053 | DRSC15538 | 1.29e5 | 6599 | inactive
CG5846 | DRSC02904 | 67490 | 3272 | inactive
TyrRII (Tyramine receptor II) | DRSC15150 | 1.18e5 | 7676 | inactive
